Test results: PMC6367206
Results are given in words; binding and its absence hold for the method and conditions named. Binding seen in cells or lysates may run through a third protein. Some results given as binding are weak or reduced against the parent protein; the word gives no strength.

Tests used:
GST-P53 fusion protein = GST-P53 fusion protein (UniProt P04637); test: pull-down; 5 ug purified GST-P53 incubated with 500 ug H23 whole cell lysate (50 mM Tris-Cl pH 7.5, 150 mM NaCl, 0.1% NP40) overnight at 4 C; captured on Glutathione Sepharose 4B; SDS-PAGE; only the target purified
HA-tagged P53 = HA-tagged P53 (UniProt P04637); test: co-IP; cells lysed in RIPA buffer; lysate with primary antibody overnight at 4 C, protein A beads 4 h; Western blot; cells and antibodies not stated

Substance: synaptotagmin-7 (SYT7) in H23 whole cell lysate (from UniProt O43581 1-403)
- binding (GST-P53 fusion protein): binds

Substance: myc-tagged SYT7 (from UniProt O43581 1-403)
- binding (HA-tagged P53): binds
